The other results are listed elsewhere or left out. Shown are side measurements of this screen, not its main read-out; they come without a call. Compounds called inactive in the main read-out are mostly missing here. Words in brackets tell the shape of the fitted curve; partial curves, single points and poor fits give uncertain potencies.
Assay: qHTS Assay for Lipid Storage Modulators in Drosophila S3 Cells;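 as to cell number change: cells counted by Cell Tracker Red CMTPX staining in the red channel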
Details: BODIPY lipid droplet fluorescence, 18-24 h; for cell number change: measured here: cell count max response, cells fed with added oleic acid
Outline: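 Drosophila S3 cells got compounds at several concentrations plus oleic acid (400 uM solution). Laser-scanning cytometry with 488 nm excitation read lipid droplets at 500-530 nm and cells at 575-640 nm. Percent activity was relative to 20 uM Triacsin C.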

[1] = measured here: cell number channel AC50, cells fed with added oleic acid
[2] = measured here: lipid fluorescence (Fed channel) AC50, cells fed with added oleic acid

Structure (SMILES)	cell number change	AC50 [1]	AC50 [2]
Cc1ccc(OCC(=O)NNc2c3ccccc3nc3ccccc23)cc1	-59%	25.9 µM [falling, partial curve]	1.64 µM [falling, full curve]
CCCCC(=O)Nc1cccc(NC(=S)NC(=O)C(C)C)c1	-13.6%	–	13 µM [falling, partial curve, poor fit]
CSCCC(NC(=O)c1ccccc1)C(=O)O (stereo unspecified)	-15.6%	–	0.184 µM [falling, full curve]
O=[N+]([O-])c1cccc(-c2c[n+]3c(n2-c2ccccc2)SCC3)c1	-14.7%	–	29.1 µM [falling, partial curve, poor fit]
COC(=O)C1CCN(C(=O)COC(=O)C2CCN(S(=O)(=O)c3ccc(C)c(C)c3)CC2)CC1	-10.5%	–	–
O=C(NCc1ccco1)c1cc2ccc(O)cc2oc1=O	38.5%	5.8 µM [rising, partial curve, poor fit]	–
Cc1ccc(C(=O)COC(=O)c2cccc([N+](=O)[O-])c2)s1	-6.74%	–	–
CCCn1c(=O)c(C(=O)N/N=C/c2ccccc2F)c(O)c2ccccc21	-4.65%	–	–
Cc1ccc(C2OC(=O)c3ccccc32)cc1 (stereo unspecified)	-13.2%	–	14.6 µM [rising, partial curve]
CN(C)c1ccc2c3c(cccc13)C(=O)N(c1ccccc1)C2=O	-4.43%	–	29.1 µM [falling, single point]
O=C(CCCc1cccs1)Nc1nccs1	40.9%	–	–
CC(C)(C)C(=O)Nc1scc(-c2ccc(-c3ccccc3)cc2)c1C(=O)O	-29.1%	–	–
Cc1ccc2nc(SCC(=O)Nc3nnc(SCC(N)=O)s3)[nH]c2c1	41.7%	–	–
CC1(NC(=O)CCS(=O)(=O)c2ccc(Cl)cc2)CCS(=O)(=O)C1 (stereo unspecified)	26.6%	–	20.6 µM [rising, partial curve]
CC(=O)c1sc(NC(=O)CS(=O)(=O)c2ccccc2)nc1-c1ccccc1	–	–	1.64 µM [falling, partial curve]
Cc1ccccc1C(=O)N1CCC(C(=O)NN2C(=O)NC3(CCCCC3)C2=O)CC1	4.15%	–	0.231 µM [falling, full curve]
CCc1ccc(NC(=O)c2cnccn2)cc1	34%	–	–
O=C(OCC(=O)N1CCCCC1)c1ccc2c(c1)C(=O)N(Cc1ccco1)C2=O	-0.251%	–	29.1 µM [falling, single point]
CN(C)c1ccc(/C=C/C(=O)c2cccnc2)cc1	15.1%	–	0.82 µM [rising, single point]
O=C1C2C3c4ccccc4C(c4ccccc43)C2C(=O)N1CN1CCOCC1 (stereo unspecified)	-9.41%	–	3.26 µM [falling, single point]
Cc1onc(-c2ccccc2Cl)c1-c1nc(-c2ccccn2)no1	-24.2%	–	16.4 µM [falling, single point]
CCN(C(=O)COC(=O)c1ccc2c(c1)OCO2)c1c(N)n(Cc2ccccc2)c(=O)[nH]c1=O	11.2%	–	0.00517 µM [rising, full curve, poor fit]

Pulled by structure from the list above (four):
Structure (SMILES)	cell number change	AC50 [1]	AC50 [2]
CCCn1c(=O)c(C(=O)N/N=C/c2ccccc2F)c(O)c2ccccc21	-4.65%	–	–
O=C(CCCc1cccs1)Nc1nccs1	40.9%	–	–
CC(=O)c1sc(NC(=O)CS(=O)(=O)c2ccccc2)nc1-c1ccccc1	–	–	1.64 µM [falling, partial curve]
CN(C)c1ccc2c3c(cccc13)C(=O)N(c1ccccc1)C2=O	-4.43%	–	29.1 µM [falling, single point]

More results follow.

Structure (SMILES)	cell number change	AC50 [1]	AC50 [2]
Cn1c(=O)[nH]c(=O)c2c1nc1n2CCCN1CCc1ccccc1	8.43%	–	2.31 µM [rising, full curve]
Cc1[nH]n(C(N)=S)c(=O)c1N=Nc1ccc2ccccc2c1	-41.8%	2.31 µM [rising, partial curve]	–
COc1ccc(C2SCC(=O)N2C)cc1 (stereo unspecified)	-46.3%	6.51 µM [falling, full curve]	6.51 µM [falling, partial curve]
CC1CCCN(S(=O)(=O)c2cccc([N+](=O)[O-])c2)C1 (stereo unspecified)	17.9%	–	0.731 µM [falling, single point]
CSc1ccccc1NC(=O)c1ccoc1C	29.9%	–	20.6 µM [rising, single point]
Cc1nc2ccccc2c2oc(C(=O)N3CCc4ccccc4C3)cc12	49%	0.517 µM [rising, full curve]	1.3 µM [rising, full curve]
O=C(O)c1ccc(CSC2CCCCC2)cc1	56.3%	16.4 µM [rising, partial curve, poor fit]	14.6 µM [rising, partial curve]
Cc1ccccc1C(=O)N1CCC(C(=O)Nc2cccc(F)c2)CC1	-11.3%	–	–
CC(=O)c1ccc(OCCCC(=O)NCc2nnc3ccccn23)cc1	0.549%	–	3.26 µM [rising, single point]
C/C=C/c1ccc(OCCOCCOc2cccc3cccnc23)c(OC)c1	56.8%	0.651 µM [rising, full curve]	0.651 µM [rising, partial curve, poor fit]
O=C(CC1SC(=NCCc2ccccc2)N(/N=C/c2cccs2)C1=O)Nc1ccc(Cl)cc1 (stereo unspecified)	-1.6%	–	32.6 µM [falling, single point]
O=C(Oc1ccc(Br)cc1)c1cccc(S(=O)(=O)N2CCOCC2)c1	-23.8%	–	29.1 µM [falling, single point]
COc1cccc(C(=O)CN2C(=O)C(C)(C)Oc3ccc(C(=O)N4CCOCC4)cc32)c1	-13.9%	–	29.1 µM [falling, single point]
O=C(O)CC(NS(=O)(=O)c1ccc(Br)cc1)c1ccco1 (stereo unspecified)	-6.46%	–	32.6 µM [falling, partial curve]
O=C(O)c1c(Cl)c(Cl)c(Cl)c(Cl)c1C(=O)N1CCCCCC1	-11.8%	–	–
O=[N+]([O-])c1ccccc1N/N=C\c1ccccc1Cl	-21.2%	–	20.6 µM [falling, single point]
COc1ccccc1N1CCN(S(=O)(=O)CCNC(=O)c2cc(=O)c3ccccc3o2)CC1	4.96%	–	6.51 µM [falling, single point]
O=C(CSc1nnc(NC(=O)c2ccco2)s1)Nc1ccccc1F	–	–	0.164 µM [rising, full curve, poor fit]
CC(C(=O)NCC1CCCO1)n1cccc1C(=O)c1ccccc1 (stereo unspecified)	-22%	–	0.206 µM [falling, full curve, poor fit]
C/C(=N\NS(=O)(=O)c1ccc(Br)cc1)c1ccc(-n2ccnc2)cc1	-6.64%	–	0.00461 µM [falling, full curve, poor fit]
COc1ccc(-c2nnc(SCC(=O)Nc3sc4c(c3C#N)CCCC4)n2-c2ccccc2)cc1	13.4%	–	2.59 µM [rising, full curve, poor fit]
Cc1ccc2sc(N(CCCN(C)C)C(=O)CCS(=O)(=O)c3ccccc3)nc2c1C	-16.4%	–	29.1 µM [falling, single point]

Structure (SMILES)	cell number change	AC50 [1]	AC50 [2]
Cc1sc(NC(=S)NC(=O)CCc2ccccc2)c(C(N)=O)c1C	66.7%	29.1 µM [rising, partial curve, poor fit]	–
CNC(=O)c1c(NC(=O)CS(=O)(=O)c2ccccc2)sc(C)c1C	–	–	4.11 µM [rising, full curve]
COc1ccccc1N1CCN(C(=O)CSc2nc(C)c(Cc3ccccc3)c(=O)[nH]2)CC1	-13.3%	–	–
CCSC(=O)N(CC)CC(=O)Nc1c(CC)cccc1CC	-13.3%	–	32.6 µM [falling, partial curve, poor fit]
Cc1ccc(/C=N\NC(=O)c2cc([N+](=O)[O-])cc([N+](=O)[O-])c2)o1	-14%	–	0.146 µM [falling, full curve, poor fit]
CCCN(CCC)c1ccc(C(O)c2nnc(-c3ccccc3)o2)cc1 (stereo unspecified)	-54%	11.6 µM [falling, partial curve, poor fit]	–
Cc1ccccc1NC(=O)c1cc(N)ccc1N1CCCCC1	–	0.326 µM [rising, single point]	–
COc1ccc(-c2csc3ncnc(N4CCN(CCO)CC4)c23)cc1	-42.3%	0.731 µM [falling, full curve]	–
O=C(NCc1ccco1)c1nc2c(nnn2Cc2cccc(Cl)c2)c(=O)[nH]1	1.03%	–	14.6 µM [rising, single point]
COc1ccc(NC(=S)NC(C)Cc2cccs2)cc1 (stereo unspecified)	12.6%	–	–
Cc1ccccc1NC(=S)N(C)Cc1cn(C)c2ccccc12	–	–	29.1 µM [falling, single point]
CCc1ccc(Nc2n[n+](-c3ccccc3)c(-c3cccc(C)c3)s2)cc1	-29.2%	–	–
CN1CCN(CCCNC(=O)c2ccc3c(Cl)c4c(nc3c2)CCCC4)CC1	10.4%	–	0.164 µM [rising, full curve, poor fit]
O=C(N/N=C\c1ccc(Cl)cc1)c1sccc1-n1cccc1	-30.1%	32.6 µM [falling, single point]	–
Cc1ccc(C(=O)COC(=O)CN2C(=O)C3C4CCC(C4)C3C2=O)cc1C (stereo unspecified)	-19.9%	–	–
Cc1cc(=O)nc2c3ccccc3n(C(C)C(=O)Nc3c(F)c(F)c(F)c(F)c3F)n12 (stereo unspecified)	12.4%	–	–
COC(=O)c1cccc(S(=O)(=O)N2CCOCC2)c1	-66.4%	16.4 µM [falling, partial curve]	4.11 µM [falling, full curve]
COc1cccc(CN(C)CC(=O)NCc2ccccc2Cl)c1	-3.54%	–	29.1 µM [falling, single point]
COc1ccc(S(=O)(=O)N2CCCCC2)cc1NC(=O)CCCOc1ccccc1	-0.342%	–	0.0517 µM [falling, full curve, poor fit]
O=C(C1=C[C@@H](c2coc3ccccc3c2=O)C[C@@H](OCCCCO)O1)N1CCOCC1	34.1%	–	–
OCC[C@@H]1C[C@@H](O)[C@H](O)[C@]2(OCCCc3ccccc32)O1	24.6%	–	0.146 µM [falling, full curve, poor fit]
